Experimental data: the supplement of paper PMC8426693
The list shows a part of the results.

Tests used:
Experiment in all cases: NMR binding call after quantification (hit when 2 of 3 NMR criteria are met) (binary (1 = binding, 0 = not binding)); higher = binding
Conditions in all cases: RNA concentration 10 µM; fragment concentration 200 µM; 293 K
SARS-CoV-2 5'-UTR RNA = system: SARS-CoV-2 5'-UTR RNA
SARS-CoV-2 5_SL1 RNA = system: SARS-CoV-2 5_SL1 RNA
SARS-CoV-2 5_SL1234 RNA = system: SARS-CoV-2 5_SL1234 RNA
SARS-CoV-2 5_SL2+3 RNA = system: SARS-CoV-2 5_SL2+3 RNA
SARS-CoV-2 5_SL4 RNA = system: SARS-CoV-2 5_SL4 RNA
SARS-CoV-2 5_SL5 RNA = system: SARS-CoV-2 5_SL5 RNA
SARS-CoV-2 5_SL5a RNA = system: SARS-CoV-2 5_SL5a RNA
SARS-CoV-2 5_SL5b+c RNA = system: SARS-CoV-2 5_SL5b+c RNA
SARS-CoV-2 5_SL5stem RNA = system: SARS-CoV-2 5_SL5stem RNA
SARS-CoV-2 5_SL6 RNA = system: SARS-CoV-2 5_SL6 RNA

SMILES | NMR binding call (SARS-CoV-2 5'-UTR RNA) | NMR binding call (SARS-CoV-2 5_SL1 RNA) | NMR binding call (SARS-CoV-2 5_SL1234 RNA) | NMR binding call (SARS-CoV-2 5_SL2+3 RNA) | NMR binding call (SARS-CoV-2 5_SL4 RNA) | NMR binding call (SARS-CoV-2 5_SL5 RNA) | NMR binding call (SARS-CoV-2 5_SL5a RNA) | NMR binding call (SARS-CoV-2 5_SL5b+c RNA) | NMR binding call (SARS-CoV-2 5_SL5stem RNA) | NMR binding call (SARS-CoV-2 5_SL6 RNA)
COc1ccc(CCC2(C)NC(=O)NC2=O)cc1 (stereo not drawn) | 0 | 0 | 0 | 0 | 0 | 0 | 0 | 0 | 0 | 0
Oc1ncc(NCCc2ccccc2)c(O)n1 | 0 | 0 | 0 | 0 | 0 | 0 | 0 | 0 | 0 | 0
CC(Oc1ccc(C#N)cc1)C(N)=O (stereo not drawn) | 0 | 0 | 0 | 0 | 0 | 0 | 0 | 0 | 0 | 0
COC(=O)c1cccc(NS(C)(=O)=O)c1 | 0 | 0 | 0 | 0 | 0 | 0 | 0 | 0 | 0 | 0
Cc1ccc(C(N)=O)c(F)c1 | 0 | 0 | 0 | 0 | 0 | 0 | 0 | 0 | 0 | 0
Cc1csc(NC(=O)C2CCOCC2)n1 | 0 | 0 | 0 | 0 | 0 | 0 | 0 | 0 | 0 | 0
N#CCC(=O)N1CCC(Cc2ccccc2)CC1 | 0 | 0 | 0 | 0 | 0 | 0 | 0 | 0 | 0 | 0
O=C(COc1ccccc1)N1CCCC1 | 0 | 0 | 0 | 0 | 0 | 0 | 0 | 0 | 0 | 0
Cc1noc(C)c1C(=O)NCCC1=CCCCC1 | 0 | 0 | 0 | 0 | 0 | 0 | 0 | 0 | 0 | 0
CCC(=O)Nc1c(C(N)=O)oc2ccccc12 | 0 | 0 | 0 | 0 | 0 | 0 | 0 | 0 | 0 | 0
CC(=O)N1CCOC(CO)C1 (stereo not drawn) | 0 | 0 | 0 | 0 | 0 | 0 | 0 | 0 | 0 | 0
CCC(C)NC(=O)c1ccccc1N (stereo not drawn) | 0 | 0 | 0 | 0 | 0 | 0 | 0 | 0 | 0 | 0
CNC(=O)C1CCCc2sc(C)nc21 (stereo not drawn) | 0 | 0 | 0 | 0 | 0 | 0 | 0 | 0 | 0 | 0
CNC(=O)c1cccc(C(=O)O)n1 | 0 | 0 | 0 | 0 | 0 | 0 | 0 | 0 | 0 | 0
Cc1c(C(=O)NCC2CCC2)cnn1C | 0 | 0 | 0 | 0 | 0 | 0 | 0 | 0 | 0 | 0
c1csc(-c2nc(N3CCCCC3)no2)c1 | 0 | 0 | 0 | 0 | 0 | 0 | 0 | 0 | 0 | 0
O=C(c1c(F)cccc1F)N1CCCCCC1 | 0 | 0 | 0 | 0 | 0 | 0 | 0 | 0 | 0 | 0
C1CCC(NCC2CCCO2)C1 (stereo not drawn) | 0 | 0 | 0 | 0 | 0 | 0 | 0 | 0 | 0 | 0

Single records (already shown). Order of values: NMR binding call (SARS-CoV-2 5'-UTR RNA) | NMR binding call (SARS-CoV-2 5_SL1 RNA) | NMR binding call (SARS-CoV-2 5_SL1234 RNA) | NMR binding call (SARS-CoV-2 5_SL2+3 RNA) | NMR binding call (SARS-CoV-2 5_SL4 RNA) | NMR binding call (SARS-CoV-2 5_SL5 RNA) | NMR binding call (SARS-CoV-2 5_SL5a RNA) | NMR binding call (SARS-CoV-2 5_SL5b+c RNA) | NMR binding call (SARS-CoV-2 5_SL5stem RNA) | NMR binding call (SARS-CoV-2 5_SL6 RNA)
`CC(Oc1ccc(C#N)cc1)C(N)=O` (stereo not drawn) is listed with 0 | 0 | 0 | 0 | 0 | 0 | 0 | 0 | 0 | 0
`COc1ccc(CCC2(C)NC(=O)NC2=O)cc1` (stereo not drawn) is listed with 0 | 0 | 0 | 0 | 0 | 0 | 0 | 0 | 0 | 0

(further entries)

SMILES | NMR binding call (SARS-CoV-2 5'-UTR RNA) | NMR binding call (SARS-CoV-2 5_SL1 RNA) | NMR binding call (SARS-CoV-2 5_SL1234 RNA) | NMR binding call (SARS-CoV-2 5_SL2+3 RNA) | NMR binding call (SARS-CoV-2 5_SL4 RNA) | NMR binding call (SARS-CoV-2 5_SL5 RNA) | NMR binding call (SARS-CoV-2 5_SL5a RNA) | NMR binding call (SARS-CoV-2 5_SL5b+c RNA) | NMR binding call (SARS-CoV-2 5_SL5stem RNA) | NMR binding call (SARS-CoV-2 5_SL6 RNA)
CC(=O)Nc1ccccc1O | 0 | 0 | 0 | 0 | 0 | 0 | 0 | 0 | 0 | 0
Cc1noc(C)c1CC(C)C(=O)N(C)C (stereo not drawn) | 0 | 0 | 0 | 0 | 0 | 0 | 0 | 0 | 0 | 0
CC(C)COc1ccc(C(=O)N2CCCC2)cc1 | 0 | 0 | 0 | 0 | 0 | 0 | 0 | 0 | 0 | 0
COc1ccc(CNC2CCCC2)cc1 | 0 | 0 | 0 | 0 | 0 | 0 | 0 | 0 | 0 | 0
CS(=O)(=O)N1CCN(Cc2ccco2)CC1.O=C(O)C(=O)O | 0 | 0 | 0 | 0 | 0 | 0 | 0 | 0 | 0 | 0
CN1CCN(C(=O)C2CCCN2)CC1 (stereo not drawn) | 0 | 0 | 0 | 0 | 0 | 0 | 0 | 0 | 0 | 0
CNC(=O)CCC1CCCCC1 | 0 | 0 | 0 | 0 | 0 | 0 | 0 | 0 | 0 | 0
O=C(COc1ccccc1)NC1CCCCC1 | 0 | 0 | 0 | 0 | 0 | 0 | 0 | 0 | 0 | 0
CC(=O)c1cccc(NC(=O)N2CCOCC2)c1 | 0 | 0 | 0 | 0 | 0 | 0 | 0 | 0 | 0 | 0
O=C(Nc1ccc(O)cc1)N1CCOCC1 | 0 | 0 | 0 | 0 | 0 | 0 | 0 | 0 | 0 | 0
COc1ccc(C(N)c2ccccc2)cc1.Cl (stereo not drawn) | 0 | 0 | 0 | 0 | 0 | 0 | 0 | 0 | 0 | 0
Fc1cccnc1NCC1CCOCC1 | 0 | 0 | 0 | 0 | 0 | 0 | 0 | 0 | 0 | 0
O=C(Nc1cccc(F)c1)c1cnccn1 | 0 | 0 | 0 | 0 | 0 | 0 | 0 | 0 | 0 | 0
Cc1cc(C(=O)NCc2cccs2)no1 | 0 | 0 | 0 | 0 | 0 | 0 | 0 | 0 | 0 | 0
CC(C)NC(=O)c1ccc2ccccc2n1 | 0 | 0 | 0 | 0 | 0 | 0 | 0 | 0 | 0 | 0
CC(=O)Nc1ncc(Cc2cccc(C)c2)s1 | 0 | 0 | 0 | 0 | 0 | 0 | 0 | 0 | 0 | 0
CNC(=O)c1nc2ccccc2c(=O)[nH]1 | 1 | 0 | 0 | 0 | 0 | – | 0 | 0 | 0 | 0
CC(=O)NCc1cn[nH]c1 | 0 | 0 | 0 | 0 | 0 | – | 0 | 0 | 0 | 0
